Results from the supplement of paper PMC10849652.
The list shows a part of the results.

Chains of the proteins cited; added tags and fusions are not shown. Lines headed by an entry give the natural chain unless they say otherwise; changes in a name come on top.
UniProt Q9UBH6: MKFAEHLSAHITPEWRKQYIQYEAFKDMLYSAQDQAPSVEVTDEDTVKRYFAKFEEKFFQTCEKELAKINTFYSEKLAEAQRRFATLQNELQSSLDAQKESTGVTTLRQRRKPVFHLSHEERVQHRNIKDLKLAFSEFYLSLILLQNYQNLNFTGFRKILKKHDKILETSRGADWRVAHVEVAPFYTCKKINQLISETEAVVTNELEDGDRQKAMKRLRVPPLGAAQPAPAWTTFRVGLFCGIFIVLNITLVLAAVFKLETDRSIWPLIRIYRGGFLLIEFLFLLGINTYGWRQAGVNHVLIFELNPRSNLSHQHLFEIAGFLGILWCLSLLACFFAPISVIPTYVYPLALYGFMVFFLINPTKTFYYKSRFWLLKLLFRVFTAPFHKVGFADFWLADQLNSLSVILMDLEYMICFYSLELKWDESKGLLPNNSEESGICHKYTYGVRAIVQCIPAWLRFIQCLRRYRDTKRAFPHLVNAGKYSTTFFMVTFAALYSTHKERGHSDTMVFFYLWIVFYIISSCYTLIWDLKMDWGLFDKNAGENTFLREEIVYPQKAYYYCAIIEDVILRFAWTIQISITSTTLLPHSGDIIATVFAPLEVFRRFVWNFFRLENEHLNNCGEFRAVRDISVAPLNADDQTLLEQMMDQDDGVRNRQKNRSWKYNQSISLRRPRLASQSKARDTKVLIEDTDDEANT
UniProt Q96K21: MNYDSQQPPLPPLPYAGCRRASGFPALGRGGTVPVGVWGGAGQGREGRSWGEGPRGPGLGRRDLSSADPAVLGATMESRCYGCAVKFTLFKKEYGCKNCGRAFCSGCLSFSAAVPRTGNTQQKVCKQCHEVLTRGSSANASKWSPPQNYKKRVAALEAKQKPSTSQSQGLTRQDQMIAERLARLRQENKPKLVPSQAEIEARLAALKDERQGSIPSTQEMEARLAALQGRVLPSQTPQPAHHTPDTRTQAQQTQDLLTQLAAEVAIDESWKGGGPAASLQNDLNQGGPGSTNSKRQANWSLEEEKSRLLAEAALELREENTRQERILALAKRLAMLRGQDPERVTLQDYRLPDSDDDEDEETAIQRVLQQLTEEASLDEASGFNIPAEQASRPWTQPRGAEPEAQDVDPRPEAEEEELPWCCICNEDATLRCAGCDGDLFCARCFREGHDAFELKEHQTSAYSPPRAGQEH
UniProt Q8WU90: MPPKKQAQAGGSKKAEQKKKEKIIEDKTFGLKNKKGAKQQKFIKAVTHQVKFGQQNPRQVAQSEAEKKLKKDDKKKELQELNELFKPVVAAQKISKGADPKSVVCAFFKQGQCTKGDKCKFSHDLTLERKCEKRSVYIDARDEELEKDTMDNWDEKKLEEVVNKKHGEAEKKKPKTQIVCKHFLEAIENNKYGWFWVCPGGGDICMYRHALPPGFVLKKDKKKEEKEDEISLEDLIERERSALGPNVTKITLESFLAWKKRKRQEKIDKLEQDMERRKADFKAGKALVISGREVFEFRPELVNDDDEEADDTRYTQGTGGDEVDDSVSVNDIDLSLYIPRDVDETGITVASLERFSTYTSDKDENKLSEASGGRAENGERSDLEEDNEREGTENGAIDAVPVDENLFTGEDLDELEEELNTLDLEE
UniProt O15498: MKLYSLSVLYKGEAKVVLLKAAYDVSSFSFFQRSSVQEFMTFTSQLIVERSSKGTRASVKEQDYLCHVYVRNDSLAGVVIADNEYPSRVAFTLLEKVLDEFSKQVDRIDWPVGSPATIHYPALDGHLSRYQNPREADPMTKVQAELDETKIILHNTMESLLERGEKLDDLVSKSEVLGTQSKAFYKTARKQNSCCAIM
UniProt Q9H8U3: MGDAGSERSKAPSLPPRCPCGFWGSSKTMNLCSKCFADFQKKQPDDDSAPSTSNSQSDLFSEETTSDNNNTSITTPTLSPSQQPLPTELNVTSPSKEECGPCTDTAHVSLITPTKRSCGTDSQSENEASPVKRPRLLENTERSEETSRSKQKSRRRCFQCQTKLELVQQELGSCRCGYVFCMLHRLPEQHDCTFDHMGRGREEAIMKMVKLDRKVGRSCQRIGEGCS
UniProt Q8NBI6: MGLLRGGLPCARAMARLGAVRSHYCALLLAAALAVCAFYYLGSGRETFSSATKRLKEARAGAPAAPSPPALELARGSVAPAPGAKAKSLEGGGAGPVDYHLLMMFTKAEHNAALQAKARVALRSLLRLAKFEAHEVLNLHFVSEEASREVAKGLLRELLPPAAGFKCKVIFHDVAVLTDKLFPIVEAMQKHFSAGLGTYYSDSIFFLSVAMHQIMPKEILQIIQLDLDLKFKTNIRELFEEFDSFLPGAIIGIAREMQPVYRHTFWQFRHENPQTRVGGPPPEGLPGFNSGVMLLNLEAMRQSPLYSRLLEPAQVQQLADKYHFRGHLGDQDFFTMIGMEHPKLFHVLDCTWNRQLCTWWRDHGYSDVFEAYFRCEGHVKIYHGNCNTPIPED
UniProt O95619, whole entry, looked up: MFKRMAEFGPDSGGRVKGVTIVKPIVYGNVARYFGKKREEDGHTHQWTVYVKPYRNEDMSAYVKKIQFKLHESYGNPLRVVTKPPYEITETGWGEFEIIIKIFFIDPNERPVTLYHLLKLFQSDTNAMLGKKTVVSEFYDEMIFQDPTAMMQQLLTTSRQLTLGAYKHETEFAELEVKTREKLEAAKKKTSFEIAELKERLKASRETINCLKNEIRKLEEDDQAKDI
UniProt P61981: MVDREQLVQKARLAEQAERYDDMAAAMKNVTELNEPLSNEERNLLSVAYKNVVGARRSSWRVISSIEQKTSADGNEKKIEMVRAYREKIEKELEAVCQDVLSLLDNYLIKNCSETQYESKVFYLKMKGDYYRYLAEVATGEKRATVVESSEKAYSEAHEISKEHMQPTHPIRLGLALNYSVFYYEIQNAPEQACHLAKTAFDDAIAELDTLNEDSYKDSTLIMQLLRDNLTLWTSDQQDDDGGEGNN
UniProt Q9Y5A9: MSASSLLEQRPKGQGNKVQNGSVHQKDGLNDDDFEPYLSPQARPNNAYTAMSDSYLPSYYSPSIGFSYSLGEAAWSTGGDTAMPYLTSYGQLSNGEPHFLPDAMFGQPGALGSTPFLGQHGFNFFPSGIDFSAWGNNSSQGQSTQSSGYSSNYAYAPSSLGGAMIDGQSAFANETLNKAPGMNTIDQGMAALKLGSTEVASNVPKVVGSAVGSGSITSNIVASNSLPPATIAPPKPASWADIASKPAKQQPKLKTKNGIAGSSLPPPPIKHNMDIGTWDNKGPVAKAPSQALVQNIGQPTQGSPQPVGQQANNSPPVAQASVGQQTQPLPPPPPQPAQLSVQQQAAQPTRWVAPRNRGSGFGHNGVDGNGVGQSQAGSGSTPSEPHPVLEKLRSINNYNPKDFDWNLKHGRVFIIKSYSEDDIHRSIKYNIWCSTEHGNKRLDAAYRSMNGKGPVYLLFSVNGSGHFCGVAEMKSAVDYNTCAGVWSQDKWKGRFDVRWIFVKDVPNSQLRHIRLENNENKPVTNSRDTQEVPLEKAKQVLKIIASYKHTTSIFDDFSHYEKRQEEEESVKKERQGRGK
UniProt Q9NYG2: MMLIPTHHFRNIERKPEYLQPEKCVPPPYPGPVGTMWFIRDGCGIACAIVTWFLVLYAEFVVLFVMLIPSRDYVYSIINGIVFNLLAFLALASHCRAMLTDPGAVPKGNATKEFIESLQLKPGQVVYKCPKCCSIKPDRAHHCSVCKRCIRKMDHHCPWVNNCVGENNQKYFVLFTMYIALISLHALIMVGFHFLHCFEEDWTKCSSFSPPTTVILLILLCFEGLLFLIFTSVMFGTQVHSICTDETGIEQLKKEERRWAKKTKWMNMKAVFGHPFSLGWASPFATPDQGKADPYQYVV
UniProt Q6NZY4: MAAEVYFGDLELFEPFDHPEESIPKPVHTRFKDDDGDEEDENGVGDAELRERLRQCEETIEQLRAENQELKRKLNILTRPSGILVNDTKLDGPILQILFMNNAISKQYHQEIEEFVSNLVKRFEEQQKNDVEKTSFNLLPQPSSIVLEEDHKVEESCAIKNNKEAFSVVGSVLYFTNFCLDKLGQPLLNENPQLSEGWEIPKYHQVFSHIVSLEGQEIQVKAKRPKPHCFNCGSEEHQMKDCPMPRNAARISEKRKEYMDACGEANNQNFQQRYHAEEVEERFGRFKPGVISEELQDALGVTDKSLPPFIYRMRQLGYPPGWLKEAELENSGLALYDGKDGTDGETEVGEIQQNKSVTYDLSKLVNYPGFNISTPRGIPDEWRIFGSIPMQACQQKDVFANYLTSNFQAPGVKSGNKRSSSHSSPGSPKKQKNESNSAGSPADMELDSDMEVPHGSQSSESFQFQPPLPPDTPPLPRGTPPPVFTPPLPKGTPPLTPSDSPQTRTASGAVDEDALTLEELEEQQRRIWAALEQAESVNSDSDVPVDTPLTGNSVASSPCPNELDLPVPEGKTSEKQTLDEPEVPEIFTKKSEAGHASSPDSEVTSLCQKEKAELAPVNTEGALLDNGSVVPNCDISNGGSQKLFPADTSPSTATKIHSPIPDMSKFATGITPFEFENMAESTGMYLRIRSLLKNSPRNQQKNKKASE
UniProt O43542: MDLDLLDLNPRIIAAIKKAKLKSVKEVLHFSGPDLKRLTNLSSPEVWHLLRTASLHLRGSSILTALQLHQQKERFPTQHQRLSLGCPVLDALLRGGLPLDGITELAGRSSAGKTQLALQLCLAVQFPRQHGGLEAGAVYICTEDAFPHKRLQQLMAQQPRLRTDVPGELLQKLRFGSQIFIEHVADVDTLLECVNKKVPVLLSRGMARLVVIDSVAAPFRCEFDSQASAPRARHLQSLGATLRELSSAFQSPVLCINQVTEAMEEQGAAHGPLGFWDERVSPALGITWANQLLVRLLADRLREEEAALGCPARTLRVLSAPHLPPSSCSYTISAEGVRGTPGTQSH
UniProt P62258: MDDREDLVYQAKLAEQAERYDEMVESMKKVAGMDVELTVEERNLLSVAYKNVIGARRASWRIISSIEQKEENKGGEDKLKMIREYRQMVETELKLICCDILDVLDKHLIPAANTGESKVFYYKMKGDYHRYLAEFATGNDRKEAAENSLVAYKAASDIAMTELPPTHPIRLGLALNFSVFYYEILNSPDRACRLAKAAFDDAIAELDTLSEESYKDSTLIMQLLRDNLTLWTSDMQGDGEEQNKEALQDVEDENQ
UniProt Q04917: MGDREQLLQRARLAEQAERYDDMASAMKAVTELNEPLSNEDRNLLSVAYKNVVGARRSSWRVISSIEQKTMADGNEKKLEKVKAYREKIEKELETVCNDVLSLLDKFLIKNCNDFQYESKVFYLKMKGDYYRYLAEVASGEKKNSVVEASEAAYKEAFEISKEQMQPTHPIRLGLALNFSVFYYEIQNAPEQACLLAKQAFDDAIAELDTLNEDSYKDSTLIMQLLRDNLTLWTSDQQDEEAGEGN

How the values were obtained:
Experiment in all cases: log2 fold change, soluble protein after heating vs DMSO (PISA); higher = thermal stabilisation; K562 cells, 10 uM, 30 min; active = over 0.2 and 3.5 SD of the protein, either way, in both replicates (recomputed)
[1] = compound: CC[C@@H]1C(=O)N(C)c2cnc(Nc3ccc(C(=O)NC4CCN(C)CC4)cc3OC)nc2N1C1CCCC1
Procedure, shortened: (§1)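 K562 cells at 2×10^6 cells/mL were given 10 μM compound for 30 min. Aliquots then went through 3 min of heating across 48°C-58°C, were pooled, and were extracted in PBS with 0.5% NP-40 at 4°C, and the supernatant after 21,000xg for 90 min was quantified by TMTpro 16plex LC-MS/MS with channel sums equalised. Thermal stability relative to control samples, from duplicates, is given as log2 fold change.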

[2] = compound: CC[C@@H]1C(=O)N(C)c2cnc(Nc3ccc(C(=O)N[C@H]4CC[C@H](N5CCN(CC6CC6)CC5)CC4)cc3OC)nc2N1C(C)C [volasertib]
Procedure, shortened: as §1

[3] = compound: CC[C@H](C)N1C=C(C2=C(C=C(C=C21)C3=CN=C(C=C3)N4CCNCC4)C(=O)NCC5=C(C=C(NC5=O)C)C)C
Procedure, shortened: as §1

[4] = compound: CC[C@H](C)[C@@H](C(=O)N[C@@H]([C@@H](C)O)C(=O)N[C@@H](CC(C)C)C(=O)[C@]1(CO1)C)NC(=O)[C@H]([C@@H](C)CC)N(C)C(=O)C [epoxomicin]
Procedure, shortened: as §1

[5] = compound: CCn1c(C(=O)N(C2CC2)C2CC2)cc2c3c(ncn3C)c(Nc3cc(C)n(C)n3)nc21
Procedure, shortened: as §1

[6] = compound: CCn1cc(-c2ccnc3[nH]c(-c4cccc(CN(C)C)c4)cc23)c(-c2ccc(NC(=O)N(C)C)cc2)n1
Procedure, shortened: as §1

[7] = compound: CN(C)CC(=O)Nc1ccc2[nH]c(=O)c3ccccc3c2c1
Procedure, shortened: as §1

[8] = compound: CN(CCOC1=CC=C(C=C1)C[C@H]2C(=O)NC(=O)S2)C3=CC=CC=N3 (racemic) [rosiglitazone]
Procedure, shortened: as §1

[9] = compound: CN1C2=C(C3=C1C(=O)N(N=C3)CC4=CC(=CC=C4)N)SC(=C2)S(=O)C
Procedure, shortened: as §1

[10] = compound: CN1CCC(CNc2ccc3ncc(-c4cccc(OC(F)(F)F)c4)n3n2)CC1
Procedure, shortened: as §1

[11] = compound: CN1CCN(CCOc2cc(OC3CCOCC3)c3c(Nc4c(Cl)ccc5c4OCO5)ncnc3c2)CC1 [saracatinib]
Procedure, shortened: as §1

[12] = compound: CN1CCN(c2nc(C3=C(c4c[nH]c5ccccc45)C(=O)NC3=O)c3ccccc3n2)CC1 [sotrastaurin]
Procedure, shortened: as §1

[13] = compound: CN1CC[C@H](c2c(O)cc(O)c3c(=O)cc(-c4ccccc4Cl)oc23)[C@H](O)C1 [alvocidib]
Procedure, shortened: as §1

[14] = compound: CN1CCc2c(c3ccccc3n2Cc2ccc(C(=O)NO)cc2)C1 [Tubastatin A]
Procedure, shortened: as §1

[15] = compound: CNC(=O)C1=CC=CC=C1NC2=NC(=NC=C2Cl)NC3=C(C=C(C=C3)N4CCOCC4)OC
Procedure, shortened: as §1

[16] = compound: CNC(=O)c1ccc(Nc2ncc(C(F)(F)F)c(NCc3nccnc3N(C)S(C)(=O)=O)n2)cc1 [defactinib]
Procedure, shortened: as §1

[17] = compound: CNCc1ccc(-c2[nH]c3cc(F)cc4c3c2CCNC4=O)cc1 [rucaparib]
Procedure, shortened: as §1

[18] = compound: CNc1nc(-c2ccc3c(N)n[nH]c3c2)cc(N2C[C@@H](C(=O)NC3CCCCC3)CC[C@H]2C)n1
Procedure, shortened: as §1

[19] = compound: COC(=O)N[C@@H](C)CNc1nccc(-c2cn(C(C)C)nc2-c2cc(Cl)cc(NS(C)(=O)=O)c2F)n1 [encorafenib]
Procedure, shortened: as §1

[20] = compound: COC(=O)[C@H](CCSC)NC(=O)C1=C(C=C(C=C1)NC[C@H](CS)N)C2=CC=CC=C2
Procedure, shortened: as §1

Measured: log2 fold change

ZFYVE16 (UniProt Q7Z3T8)
inactive: [1] -0.018 | [2] -0.031 | [3] 0.015 | [4] 0.025 | [5] -0.022 | [6] 0.012 | [7] -0.005 | [8] -0.005 | [9] -0.012 | [10] -0.081 | [11] -0.005 | [12] -0.003 | [13] -0.058 | [14] -0.01 | [15] -0.024 | [16] -0.046 | [17] -0.02 | [18] -0.028 | [19] -0.007 | [20] -0.015

XPR1 (UniProt Q9UBH6)
inactive: [1] 0.013 | [2] -0.025 | [3] 0.005 | [4] 0.022 | [5] 0.046 | [6] -0.028 | [7] 0 | [8] -0.004 | [9] -0.009 | [10] 0.053 | [11] 0.006 | [12] -0.014 | [13] -0.022 | [14] 0.025 | [15] 0 | [16] -0.023 | [17] 0 | [18] 0.002 | [19] 0.045 | [20] 0.002

ZFYVE19 (UniProt Q96K21)
inactive: [1] -0.036 | [2] 0.045 | [3] -0.051 | [4] 0.057 | [5] -0.055 | [6] 0.05 | [7] 0.003 | [8] 0.023 | [9] -0.134 | [10] -0.029 | [11] 0.079 | [12] 0.039 | [13] 0.013 | [14] -0.012 | [15] -0.037 | [16] 0.037 | [17] -0.001 | [18] -0.048 | [19] -0.011 | [20] 0.071

ZC3H15 (UniProt Q8WU90)
inactive: [1] 0.071 | [2] 0.084 | [3] -0.014 | [4] -0.023 | [5] -0.002 | [6] 0.025 | [7] -0.05 | [8] -0.039 | [9] 0.023 | [10] 0.089 | [11] -0.027 | [12] 0.058 | [13] 0.055 | [14] 0.014 | [15] -0.006 | [16] 0.085 | [17] 0.092 | [18] 0.016 | [19] 0.035 | [20] 0.022

YKT6 (UniProt O15498)
inactive: [1] 0.028 | [2] -0.022 | [3] -0.007 | [4] 0.005 | [5] 0.008 | [6] 0.007 | [7] -0.039 | [8] 0.013 | [9] -0.09 | [10] 0.016 | [11] 0.029 | [12] 0.033 | [13] 0.025 | [14] -0.051 | [15] 0.001 | [16] 0 | [17] -0.041 | [18] 0.009 | [19] -0.006 | [20] -0.004

ZFAND3 (UniProt Q9H8U3)
inactive: [1] 0.158 | [2] 0.149 | [3] 0.014 | [4] 0.16 | [5] -0.007 | [6] -0.316 | [7] -0.023 | [8] 0.036 | [9] -0.005 | [10] 0.089 | [11] 0.022 | [12] 0.046 | [13] 0.013 | [14] 0.12 | [15] 0.031 | [16] -0.084 | [17] -0.097 | [18] -0.017 | [19] -0.07 | [20] 0.106

XXYLT1 (UniProt Q8NBI6)
inactive: [1] 0.061 | [2] -0.018 | [3] -0.008 | [4] -0.024 | [5] -0.01 | [6] -0.047 | [7] -0.024 | [8] 0.054 | [9] -0.033 | [10] 0.154 | [11] -0.056 | [12] -0.038 | [13] 0.006 | [14] -0.012 | [15] 0.034 | [16] -0.001 | [17] -0.078 | [18] -0.014 | [19] 0.052 | [20] -0.019

YEATS4 (UniProt O95619)
inactive: [1] 0.057 | [2] 0.012 | [3] 0.06 | [4] -0.01 | [5] -0.016 | [6] 0 | [7] -0.021 | [8] 0.029 | [9] 0.003 | [10] -0.004 | [11] 0.053 | [12] 0.011 | [13] 0.04 | [14] -0.021 | [15] 0.033 | [16] -0.001 | [17] 0.03 | [18] -0.051 | [19] -0.005 | [20] -0.008

YWHAG (UniProt P61981)
inactive: [1] -0.109 | [2] 0.042 | [3] 0.028 | [4] 0.08 | [5] 0.019 | [6] -0.015 | [7] 0.011 | [8] -0.027 | [9] -0.078 | [10] 0.013 | [11] 0.089 | [12] 0.047 | [13] 0.026 | [14] -0.02 | [15] 0.014 | [16] -0.012 | [17] 0.007 | [18] 0.031 | [19] -0.065 | [20] 0.012

YTHDF2 (UniProt Q9Y5A9)
inactive: [1] -0.047 | [2] -0.069 | [3] 0.07 | [4] 0.009 | [5] 0.009 | [6] -0.04 | [7] -0.012 | [8] 0.006 | [9] 0.025 | [10] -0.133 | [11] -0.026 | [12] 0.047 | [13] -0.026 | [14] 0.021 | [15] -0.034 | [16] -0.006 | [17] 0.026 | [18] -0.013 | [19] 0.015 | [20] -0.035

2 successive entries out of the list so far:
XPR1 (UniProt Q9UBH6)
inactive: [1] 0.013 | [2] -0.025 | [3] 0.005 | [4] 0.022 | [5] 0.046 | [6] -0.028 | [7] 0 | [8] -0.004 | [9] -0.009 | [10] 0.053 | [11] 0.006 | [12] -0.014 | [13] -0.022 | [14] 0.025 | [15] 0 | [16] -0.023 | [17] 0 | [18] 0.002 | [19] 0.045 | [20] 0.002

ZFYVE19 (UniProt Q96K21)
inactive: [1] -0.036 | [2] 0.045 | [3] -0.051 | [4] 0.057 | [5] -0.055 | [6] 0.05 | [7] 0.003 | [8] 0.023 | [9] -0.134 | [10] -0.029 | [11] 0.079 | [12] 0.039 | [13] 0.013 | [14] -0.012 | [15] -0.037 | [16] 0.037 | [17] -0.001 | [18] -0.048 | [19] -0.011 | [20] 0.071

Going on with the list.

ZDHHC3 isoform 2 (UniProt Q9NYG2)
inactive: [1] -0.159 | [2] -0.174 | [3] -0.018 | [4] 0.052 | [5] -0.035 | [6] -0.086 | [7] 0.096 | [8] -0.017 | [9] -0.055 | [10] -0.275 | [11] 0.039 | [12] 0.015 | [13] -0.02 | [14] 0.01 | [15] 0 | [16] -0.072 | [17] -0.026 | [18] -0.074 | [19] -0.009 | [20] 0.077

XPO7 (UniProt E7ESC6)
inactive: [1] -0.087 | [2] -0.192 | [3] 0.051 | [4] 0.032 | [5] 0.002 | [6] -0.01 | [7] 0.004 | [8] 0.005 | [9] -0.078 | [10] -0.025 | [11] 0.043 | [12] -0.001 | [13] -0.083 | [14] -0.073 | [15] -0.001 | [16] -0.071 | [17] -0.022 | [18] -0.024 | [19] 0.014 | [20] -0.016

ZCCHC8 (UniProt Q6NZY4)
inactive: [1] 0.046 | [2] 0.107 | [3] 0.012 | [4] 0.036 | [5] 0.021 | [6] -0.036 | [7] -0.004 | [8] 0.035 | [9] -0.039 | [10] -0.027 | [11] -0.058 | [12] -0.013 | [13] -0.006 | [14] -0.019 | [15] 0.112 | [16] 0.002 | [17] 0.04 | [18] 0.011 | [19] -0.004 | [20] 0.027

XRCC3 (UniProt O43542)
inactive: [1] -0.04 | [2] -0.021 | [3] 0.025 | [4] -0.041 | [5] 0.032 | [6] -0.028 | [7] 0.064 | [8] 0.024 | [9] -0.069 | [10] -0.02 | [11] 0.156 | [12] -0.005 | [13] -0.055 | [14] -0.036 | [15] -0.117 | [16] -0.03 | [17] 0.063 | [18] 0.003 | [19] -0.011 | [20] -0.089

YWHAE (UniProt P62258)
inactive: [1] 0.023 | [2] 0.037 | [3] -0.027 | [4] 0.018 | [5] 0.02 | [6] -0.011 | [7] -0.019 | [8] -0.008 | [9] -0.033 | [10] -0.043 | [11] 0.04 | [12] 0.016 | [13] 0 | [14] -0.03 | [15] -0.033 | [16] -0.015 | [17] -0.033 | [18] -0.04 | [19] -0.015 | [20] 0.031

YWHAH (UniProt Q04917)
inactive: [1] -0.054 | [2] -0.035 | [3] 0.029 | [4] 0.045 | [5] 0.007 | [6] -0.005 | [7] -0.048 | [8] 0.032 | [9] -0.079 | [10] 0.006 | [11] 0.028 | [12] 0.02 | [13] 0.008 | [14] -0.034 | [15] 0.008 | [16] -0.047 | [17] -0.038 | [18] 0.038 | [19] -0.007 | [20] 0.013
